Test results as given in PubChem BioAssay AID2685 (National Center for Advancing Translational Sciences (NCATS), 2010).
The list shows a part of the results. Shown are side measurements of this screen, not its main read-out; they come without a call. Compounds called inactive in the main read-out are mostly missing here. Potencies come from curve fits of mixed quality, noted in brackets.

Experiment: qHTS Assay for Lipid Storage Modulators in Drosophila S3 Cells;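 as to cell number change: cells counted by Cell Tracker Red CMTPX staining in the red channel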
Conditions: BODIPY lipid droplet fluorescence, 18-24 h; for cell number change: measured here: cell count max response, cells fed with added oleic acid
Procedure, shortened: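 Drosophila S3 cells got compounds at several concentrations plus oleic acid (400 uM solution). Laser-scanning cytometry with 488 nm excitation read lipid droplets at 500-530 nm and cells at 575-640 nm. Percent activity was relative to 20 uM Triacsin C.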

[1] = measured here: lipid fluorescence (Fed channel) AC50, cells fed with added oleic acid
[2] = measured here: cell number channel AC50, cells fed with added oleic acid

With `CCOC(=O)N1CCN(C(=O)Nc2ccc3nc(C)sc3c2)CC1` as the compound, how does the cell number change read?
The cell number change was 26.6%.

What about the AC50 [1] of the same compound?
The AC50 was 10300 nM [rising, partial curve, poor fit].

Which results are given for `O=S(=O)(c1ccccc1)c1ncc(C(F)(F)F)cc1O`?
cell number change: -21.7%; AC50 [2]: 130 nM [falling, full curve, poor fit]; AC50 [1]: 116 nM [falling, partial curve, poor fit]

Which cell number change does the source give for `O=C(CC1(O)C(=O)Nc2cc(Cl)cc(Cl)c21)c1ccccc1O` (configuration not stated) here?
Its cell number change is -45.2%.

And the AC50 [2]?
Its AC50 is 16400 nM [falling, single point].

What about the AC50 [1] of the same compound?
Its AC50 is 16400 nM [falling, single point].

Which cell number change does the source give for `CC(Sc1nnc(NC2CCCCC2)s1)C(=O)Nc1ccc2c(c1)C(=O)c1ccccc1C2=O` (configuration not stated) here?
Its cell number change is -3.7%.

And the AC50 [2]?
Its AC50 is 259 nM [falling, full curve, poor fit].

And the AC50 [1]?
Its AC50 is 2310 nM [rising, partial curve, poor fit].

With `COC(=O)CCN(C1CCCCC1)S(=O)(=O)c1ccc(S(=O)(=O)N2CCCCC2)cc1` as the compound, how does the cell number change read?
The cell number change was 0.651%.

With `O=c1c(-c2ccco2)[n+]([O-])c2ccccc2n1OCc1ccccc1F` as the compound, how does the cell number change read?
The cell number change was 10.1%.

And the AC50 [2]?
The AC50 was 2910 nM [rising, partial curve, poor fit].

And the AC50 [1]?
The AC50 was 9200 nM [rising, partial curve].

With `O=C(O)C(c1ccccc1)N1CCCCC1` (configuration not stated) as the compound, how does the cell number change read?
The cell number change was -14.7%.

What does the source list for `CCc1nnc(NC(=O)CSc2nnc(C)c(=O)n2N)s1`?
cell number change: -30.3%; AC50 [2]: 7310 nM [falling, partial curve]; AC50 [1]: 29100 nM [falling, single point]

Which results are given for `O=C(O)c1cccc(-n2sc3ccccc3c2=O)c1`?
cell number change: -85%; AC50 [2]: 29100 nM [falling, single point]; AC50 [1]: 3260 nM [falling, single point]

For `CCc1ccc(C(=O)CSc2nc3ccccc3c(=O)[nH]2)cc1`, which cell number change is on record?
The cell number change was -41.1%.

What about the AC50 [2] of the same compound?
The AC50 was 1460 nM [falling, partial curve].

Which AC50 [1] does the source give for `N#CN=C(c1ccccc1)c1ccccc1` here?
Its AC50 is 18400 nM [falling, partial curve, poor fit].

What does the source list for `Cc1ccccc1SCC(=O)NNC(=O)c1ccncc1`?
cell number change: 23.8%; AC50 [1]: 4.61 nM [rising, full curve, poor fit]

With `O=C(CCc1nnc2ccc(NCCCN3CCCC3=O)nn12)NCc1ccccc1Cl` as the compound, how does the cell number change read?
Its cell number change is 28.1%.

What about the AC50 [2] of the same compound?
Its AC50 is 461 nM [rising, full curve, poor fit].

What about the AC50 [1] of the same compound?
The AC50 was 920 nM [falling, single point].

Which results are given for `Cc1cc(C)nc(SCc2nnc(SCC(=O)Nc3ccccc3C)n2Cc2ccco2)n1`?
cell number change: 31.4%; AC50 [2]: 231 nM [rising, full curve]

For `CC(=O)c1ccc(NC(=O)CSC(C)C)cc1`, which cell number change is on record?
Its cell number change is 7.79%.

And the AC50 [1]?
The AC50 was 1460 nM [falling, full curve, poor fit].

With `CC(=O)NC1(C(F)(F)F)C(=O)Nc2c1c(=O)[nH]c(=O)n2CC(C)C` (configuration not stated) as the compound, how does the cell number change read?
Its cell number change is 105%.

With `NC(N)=NS(=O)(=O)c1ccc(N)cc1` as the compound, how does the cell number change read?
Its cell number change is -5.96%.

What about the AC50 [1] of the same compound?
Its AC50 is 29100 nM [rising, single point].

Which cell number change does the source give for `Clc1ccc(-c2nnc(-c3ccc(Br)o3)o2)c(Cl)c1` here?
The cell number change was 17.6%.

What about the AC50 [2] of the same compound?
Its AC50 is 6510 nM [rising, single point].

With `O=C(c1ccc(S(=O)(=O)NCc2ccco2)cc1)N1CCN(Cc2ccccc2)CC1` as the compound, how does the cell number change read?
Its cell number change is -2.47%.

And the AC50 [2]?
Its AC50 is 651 nM [falling, partial curve, poor fit].

Which cell number change does the source give for `O=c1cc(N2CCc3ccccc32)[nH]c(=O)n1Cc1ccc(F)cc1` here?
The cell number change was 21.1%.

What about the AC50 [2] of the same compound?
Its AC50 is 2060 nM [rising, full curve, poor fit].

With `O=C(C1CCN(S(=O)(=O)c2cccc3nsnc23)CC1)N1CCc2ccccc21` as the compound, how does the cell number change read?
The cell number change was 14.1%.

What about the AC50 [1] of the same compound?
The AC50 was 1640 nM [falling, partial curve].

Which results are given for `CCOC(=O)CSc1ccc2nnc(CCNS(=O)(=O)c3ccccc3)n2n1`?
cell number change: 10.7%; AC50 [1]: 366 nM [rising, partial curve, poor fit]

With `COc1ccccc1CN1C(=S)SC(C)(C)C1NO` (configuration not stated) as the compound, how does the AC50 [2] read?
Its AC50 is 1030 nM [rising, partial curve, poor fit].

What about the AC50 [1] of the same compound?
The AC50 was 6510 nM [rising, single point].

For `Cc1ccc(S(=O)(=O)N2[C@@H](c3cccc(Cl)c3)C(C(=O)O)=CC[C@H]2c2ccc(Cl)cc2)cc1`, which cell number change is on record?
Its cell number change is 23.2%.

What about the AC50 [2] of the same compound?
The AC50 was 3660 nM [falling, single point].

For `Cc1ccc(N(CC(=O)N2CCN(c3ccccc3F)CC2)S(=O)(=O)c2c(C)noc2C)cc1`, which cell number change is on record?
The cell number change was 15.4%.

What about the AC50 [1] of the same compound?
The AC50 was 29100 nM [rising, single point].

With `COc1ccc(Cc2noc(-c3ccc(C)cc3)n2)cc1` as the compound, how does the AC50 [2] read?
Its AC50 is 2590 nM [rising, partial curve].

Which cell number change does the source give for `CCn1c(SCC(=O)Nc2cc(Cl)ccc2OC)nnc1C1CC1` here?
The cell number change was 21%.

Which results are given for `O=C(N/N=C/c1ccccc1OC(=O)c1ccc2c(c1)OCO2)c1cccc(F)c1`?
cell number change: 28.4%; AC50 [1]: 1840 nM [rising, partial curve, poor fit]

Which cell number change does the source give for `CCCN(CCC)c1nc(Cl)nc(NCCN2CCOCC2)n1` here?
Its cell number change is -46.4%.

What about the AC50 [1] of the same compound?
Its AC50 is 3660 nM [rising, single point].

For `Cc1nn(Cc2ccccc2)c(C)c1C(=O)N1CCN(S(=O)(=O)/C=C/c2ccccc2)CC1`, which cell number change is on record?
The cell number change was -3.01%.

What about the AC50 [1] of the same compound?
The AC50 was 517 nM [rising, single point].

Which results are given for `CCCOc1cccc(C2C(C(=O)c3ccco3)=C(O)C(=O)N2CCN(CC)CC)c1` (configuration not stated)?
cell number change: -1.85%; AC50 [1]: 580 nM [rising, single point]

For `CCOc1ccc(C(=O)CCNC(Cc2cnc[nH]2)C(=O)O)cc1` (configuration not stated), which cell number change is on record?
Its cell number change is -33.3%.

And the AC50 [1]?
The AC50 was 29100 nM [falling, single point].

For `Cc1csc(C(C)N(C)C(=O)c2ccc(OC3CCN(Cc4ccccn4)CC3)cc2)n1` (configuration not stated), which cell number change is on record?
The cell number change was -9.83%.

What about the AC50 [1] of the same compound?
Its AC50 is 29100 nM [falling, single point].

Which results are given for `CCN1C(=O)CSc2ccc(C(=O)NCc3ccc(OC)cc3)cc21`?
cell number change: 93%; AC50 [2]: 29100 nM [rising, single point]

Which cell number change does the source give for `Nc1nc(Sc2ccc([N+](=O)[O-])cc2[N+](=O)[O-])n[nH]1` here?
The cell number change was 1.03%.

What about the AC50 [1] of the same compound?
Its AC50 is 23100 nM [falling, single point].

Which AC50 [1] does the source give for `COc1ccc(CCN(Cc2cccs2)S(=O)(=O)c2ccc(-n3cnnn3)c(OC)c2)cc1OC` here?
The AC50 was 259 nM [rising, partial curve, poor fit].
